This is an account of results in article PMC9626489.

Chains of the proteins cited; added tags and fusions are not shown.
UniProt P07737: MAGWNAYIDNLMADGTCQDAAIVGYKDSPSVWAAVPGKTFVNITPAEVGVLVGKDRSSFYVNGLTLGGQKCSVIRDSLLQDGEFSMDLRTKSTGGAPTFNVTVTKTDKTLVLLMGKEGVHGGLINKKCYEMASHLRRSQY
UniProt O60264: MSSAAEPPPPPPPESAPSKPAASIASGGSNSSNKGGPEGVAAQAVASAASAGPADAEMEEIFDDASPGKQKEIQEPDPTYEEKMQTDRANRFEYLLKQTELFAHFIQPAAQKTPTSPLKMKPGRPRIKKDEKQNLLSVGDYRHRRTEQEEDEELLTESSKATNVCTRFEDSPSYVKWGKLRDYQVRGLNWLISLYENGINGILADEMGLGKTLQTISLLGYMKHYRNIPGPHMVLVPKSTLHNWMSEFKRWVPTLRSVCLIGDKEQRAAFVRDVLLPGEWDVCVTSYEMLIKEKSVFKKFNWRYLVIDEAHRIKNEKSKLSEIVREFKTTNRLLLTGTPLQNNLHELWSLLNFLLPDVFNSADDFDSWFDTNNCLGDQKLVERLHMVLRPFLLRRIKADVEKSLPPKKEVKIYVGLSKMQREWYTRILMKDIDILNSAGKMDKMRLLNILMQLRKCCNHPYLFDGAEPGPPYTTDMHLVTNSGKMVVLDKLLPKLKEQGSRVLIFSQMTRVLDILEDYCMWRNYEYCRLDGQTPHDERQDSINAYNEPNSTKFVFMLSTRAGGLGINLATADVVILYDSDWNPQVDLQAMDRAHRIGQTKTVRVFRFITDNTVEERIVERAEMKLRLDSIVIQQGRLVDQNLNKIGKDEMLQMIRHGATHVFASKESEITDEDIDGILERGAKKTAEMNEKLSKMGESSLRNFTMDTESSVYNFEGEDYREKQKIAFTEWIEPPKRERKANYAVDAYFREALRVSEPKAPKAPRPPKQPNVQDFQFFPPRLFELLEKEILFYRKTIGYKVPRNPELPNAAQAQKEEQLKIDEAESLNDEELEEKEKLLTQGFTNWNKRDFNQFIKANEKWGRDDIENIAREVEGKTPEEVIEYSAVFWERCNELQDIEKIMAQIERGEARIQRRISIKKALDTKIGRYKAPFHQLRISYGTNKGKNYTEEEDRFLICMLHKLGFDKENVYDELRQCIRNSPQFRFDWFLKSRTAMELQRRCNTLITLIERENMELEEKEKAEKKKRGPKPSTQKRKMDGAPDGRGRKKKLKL
UniProt Q8NFC6: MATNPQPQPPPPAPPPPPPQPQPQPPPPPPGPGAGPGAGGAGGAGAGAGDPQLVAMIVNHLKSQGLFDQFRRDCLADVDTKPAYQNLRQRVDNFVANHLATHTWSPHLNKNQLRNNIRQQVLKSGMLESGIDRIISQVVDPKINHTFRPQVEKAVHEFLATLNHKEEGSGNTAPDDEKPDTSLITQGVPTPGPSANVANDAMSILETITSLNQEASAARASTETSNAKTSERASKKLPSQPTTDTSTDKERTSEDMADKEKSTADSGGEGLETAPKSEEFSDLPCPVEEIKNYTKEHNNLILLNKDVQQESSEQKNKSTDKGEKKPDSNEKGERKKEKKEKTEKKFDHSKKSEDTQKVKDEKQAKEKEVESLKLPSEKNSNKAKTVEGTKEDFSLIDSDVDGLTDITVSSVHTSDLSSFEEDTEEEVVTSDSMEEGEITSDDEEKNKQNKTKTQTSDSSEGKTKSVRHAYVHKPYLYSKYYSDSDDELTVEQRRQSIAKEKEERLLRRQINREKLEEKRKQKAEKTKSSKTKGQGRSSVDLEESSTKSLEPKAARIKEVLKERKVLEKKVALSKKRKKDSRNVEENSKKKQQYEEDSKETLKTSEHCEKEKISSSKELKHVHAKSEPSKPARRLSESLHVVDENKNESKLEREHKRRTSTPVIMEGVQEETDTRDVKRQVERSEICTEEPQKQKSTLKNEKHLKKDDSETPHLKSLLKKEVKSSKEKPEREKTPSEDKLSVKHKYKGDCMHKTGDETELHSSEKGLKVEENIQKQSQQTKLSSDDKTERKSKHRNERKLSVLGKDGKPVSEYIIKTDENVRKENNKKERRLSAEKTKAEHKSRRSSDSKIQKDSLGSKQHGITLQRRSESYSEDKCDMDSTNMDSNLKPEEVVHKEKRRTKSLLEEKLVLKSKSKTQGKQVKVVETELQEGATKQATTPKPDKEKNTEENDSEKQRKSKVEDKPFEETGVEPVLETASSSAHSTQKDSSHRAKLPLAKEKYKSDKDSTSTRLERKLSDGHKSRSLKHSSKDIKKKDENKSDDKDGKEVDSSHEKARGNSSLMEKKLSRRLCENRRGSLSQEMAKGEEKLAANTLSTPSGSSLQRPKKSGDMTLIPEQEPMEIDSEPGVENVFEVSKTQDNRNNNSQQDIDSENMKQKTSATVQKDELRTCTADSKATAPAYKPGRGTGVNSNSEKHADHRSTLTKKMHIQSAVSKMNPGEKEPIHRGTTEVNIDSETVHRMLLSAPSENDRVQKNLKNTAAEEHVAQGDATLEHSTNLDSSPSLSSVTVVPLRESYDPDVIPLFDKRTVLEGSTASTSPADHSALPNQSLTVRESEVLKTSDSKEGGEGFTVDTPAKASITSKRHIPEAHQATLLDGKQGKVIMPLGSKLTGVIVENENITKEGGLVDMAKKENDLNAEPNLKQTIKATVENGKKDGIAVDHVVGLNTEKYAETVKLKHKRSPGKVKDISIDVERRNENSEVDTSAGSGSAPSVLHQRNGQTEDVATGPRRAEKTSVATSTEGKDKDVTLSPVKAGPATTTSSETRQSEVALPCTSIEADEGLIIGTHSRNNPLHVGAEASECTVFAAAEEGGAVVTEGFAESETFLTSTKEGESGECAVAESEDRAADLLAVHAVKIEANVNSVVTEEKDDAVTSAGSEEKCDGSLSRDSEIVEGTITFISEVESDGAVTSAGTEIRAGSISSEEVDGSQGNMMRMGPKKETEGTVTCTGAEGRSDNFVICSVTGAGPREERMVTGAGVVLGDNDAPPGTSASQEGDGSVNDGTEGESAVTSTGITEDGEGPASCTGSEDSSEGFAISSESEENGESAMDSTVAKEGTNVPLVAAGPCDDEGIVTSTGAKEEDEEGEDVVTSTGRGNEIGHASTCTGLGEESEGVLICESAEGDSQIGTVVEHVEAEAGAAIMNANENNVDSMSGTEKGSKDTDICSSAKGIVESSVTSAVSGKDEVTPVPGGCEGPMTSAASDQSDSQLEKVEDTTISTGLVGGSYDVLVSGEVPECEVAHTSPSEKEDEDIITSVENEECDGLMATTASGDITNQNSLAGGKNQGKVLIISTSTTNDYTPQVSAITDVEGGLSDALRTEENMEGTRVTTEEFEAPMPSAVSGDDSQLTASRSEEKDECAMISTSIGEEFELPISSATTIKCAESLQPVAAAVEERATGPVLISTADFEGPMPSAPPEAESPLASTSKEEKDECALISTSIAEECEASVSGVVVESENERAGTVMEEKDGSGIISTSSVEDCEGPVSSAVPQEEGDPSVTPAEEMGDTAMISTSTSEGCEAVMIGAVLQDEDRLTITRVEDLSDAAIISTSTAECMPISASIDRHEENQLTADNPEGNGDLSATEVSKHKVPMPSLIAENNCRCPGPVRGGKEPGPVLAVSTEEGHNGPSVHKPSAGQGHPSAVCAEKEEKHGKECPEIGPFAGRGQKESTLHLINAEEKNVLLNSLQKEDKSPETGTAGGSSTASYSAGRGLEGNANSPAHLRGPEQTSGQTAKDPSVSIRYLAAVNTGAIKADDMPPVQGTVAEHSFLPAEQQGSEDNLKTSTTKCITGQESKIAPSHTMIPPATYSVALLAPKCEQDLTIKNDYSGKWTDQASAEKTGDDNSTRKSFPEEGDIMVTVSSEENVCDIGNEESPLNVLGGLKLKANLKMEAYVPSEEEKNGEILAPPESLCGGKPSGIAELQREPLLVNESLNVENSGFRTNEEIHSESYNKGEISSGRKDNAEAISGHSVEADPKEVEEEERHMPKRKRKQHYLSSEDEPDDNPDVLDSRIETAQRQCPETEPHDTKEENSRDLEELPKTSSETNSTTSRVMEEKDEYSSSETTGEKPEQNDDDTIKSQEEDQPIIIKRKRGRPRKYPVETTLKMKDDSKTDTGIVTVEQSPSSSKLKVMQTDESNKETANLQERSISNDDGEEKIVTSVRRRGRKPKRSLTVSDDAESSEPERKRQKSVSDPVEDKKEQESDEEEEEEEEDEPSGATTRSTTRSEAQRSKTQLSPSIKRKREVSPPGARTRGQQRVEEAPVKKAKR

No constants are given. Whether binding was seen depends on the method and setting. In cells and extracts the contact can be indirect. Some results given as binding are weak or reduced against the parent protein; the word gives no strength.

Assay [1] deals with HA-PFN1 (wild type profilin-1) (human) (UniProt P07737). As to the kind of experiment: co-IP; anti-HA immunoprecipitation from RIPA lysates of transfected HEK293T cells, 250 U/ml Benzonase and 1.5 mM MgCl2 in lysate, Dynabeads protein G, 4 °C, Western blot for SNF2H. In general terms: A western blot detects proteins with antibodies after separation by electrophoresis.
The target is the same in assay [2]. The experiment in a line: proximity ligation; Duolink PLA in HA-PFN1-transfected HeLa cells, anti-HA with anti-SNF2H or anti-BOD1L, detergent-extracted and fixed cells, foci per nucleus (>5 positive); also after HU treatment.
The target in assay [3] is YFP-NLS-PFN1 (human) (UniProt P07737). As to the kind of experiment: co-IP; anti-GFP immunoprecipitation from RIPA lysates of MCF-7 cells expressing YFP or YFP-NLS-PFN1, Benzonase in lysate, Dynabeads protein G, 4 °C, Western blot for SNF2H.
Assay [4] concerns the target endogenous SNF2H/SMARCA5 (human (endogenous in MCF-7, MCF-10A, HeLa)) (UniProt O60264). As to the kind of experiment: co-IP; anti-SNF2H immunoprecipitation from RIPA lysates of parental MCF-10A cells, control mouse IgG, Benzonase in lysate, Dynabeads protein G, 4 °C, Western blot.

With “SNF2H in transfected HEK293T cells (Fig. 2b) (from UniProt O60264 1-1052) (enzyme)”, the binding entry in assay [1] is listed as “binds”. As to “endogenous SNF2H/SMARCA5 (from UniProt O60264 1-1052) (enzyme)”, the binding result in assay [2] and in assay [3] was “binds” throughout.

Consider “endogenous PFN1 (profilin-1) of MCF-10A cells (from UniProt P07737 1-140)”, for which, in assay [4], the binding result is “binds”. Take “endogenous BOD1L (from UniProt Q8NFC6 1-3051)”: the binding result in assay [2] is on record as “binds”.
